Article PMC7768757
No constants are given. Whether binding was seen depends on the method and setting. In cells and extracts the contact can be indirect. A yes stands for co-enrichment or nearness to the bait. Other partners may have been found.

Key:
[1] = biological target: Tic20-YFP-FLAG3x (Chlamydomonas reinhardtii); test: affinity purification with mass spectrometry; immunopurification of Tic20-YFP-FLAG3x from Chlamydomonas under native conditions, then mass-spectrometric analysis; as in ref. 47
[2] = biological target: Tic20-YFP-FLAG3x (Chlamydomonas reinhardtii); test: affinity purification with mass spectrometry; affinity-purified Tic20-YFP-FLAG3x fraction (digitonin) separated by 2D BN/SDS-PAGE, silver staining, mass spectrometry of discrete spots of the large complex
[3] = biological target: Tic214 with three copies of the HA tag (Chlamydomonas reinhardtii); test: affinity purification with mass spectrometry; reciprocal coimmunoprecipitation with triple-HA-tagged Tic214 as bait from Chlamydomonas, then mass spectrometry; gel regions with the antibody chains were excluded

binding [1]: binds
binding [2]: binds
binding [3]: binds
B1: Chlamydomonas Toc34 (protein, UniProt A8HYJ1 1-397)
chain: MAQPPRPAEEYDDDVQEDEDELKEGELDDDESHEAASEGGEAAAGDEEAEDDEQDEEDGDEDSQPWAGLNRLPERDDMLDILNELRAEGRKQLTVLLLGKSSVGKSSLINSLLGEAVVRVQAFKLQADTDITTTVVRQVAVGNSEVDGFRLKLIDTCGLEDPEAGDTVNLGALSKIAEDVRGVGIDVVLYCDRLDLYRVDPLDKAIIDAISSTFGRGIWRRTVVALTHANLVQTPPGTDYDSFVNGRVRLIRGAVRGPLFFRPSLPVALVENSETCPVSSESGFRVLPDGEPWLVALVSQLVDMAAARRRPYKYHPRLSSKPSHRFRWLLPVAIAAEVLFYRRFLHPRLDDNQRRVEREEERVWALRGQQRRALGLHRPHRPDKDAAWRLEQMYDDD
